Measurements from US20220202859A1, “CANCER TREATMENT USING CD38 INHIBITOR AND/OR LENALIDOMIDE AND T-CELLS EXPRESSING A CHIMERIC ANTIGEN RECEPTOR” (CRISPR THERAPEUTICS AG, priority 2020, published 2022).
Results are given in words; binding and its absence hold for the method and conditions named. Some binding calls cover weakened binding; strength is not graded here.

The chains behind the UniProt entries cited, without tags or fusion partners. Residues count along the entry.
UniProt Q02223, residues 1-54: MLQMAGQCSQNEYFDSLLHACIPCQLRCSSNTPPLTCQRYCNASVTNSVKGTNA

Target: purified BCMA protein (UniProt Q02223)
Experiment: immunohistochemistry, purified BCMA protein absorbed to a tissue slide, antibody at 5.0 and 50.0 µg/mL

binding: binds
B1: humanized mouse antibody from which the scFv portion of the CTX120 CAR was derived (antibody, V domains shown)
VH: QVQLVQSGAELKKPGASVKVSCKASGNTLTNYVIHWVRQAPGQRLEWMGYILPYNDLTKYSQKFQGRVTITRDKSASTAYMELSSLRSEDTAVYYCTRWDWDGFFDPWGQGTTVTVSS
VL: EIVMTQSPATLSVSPGERASISCRASQSLVHSNGNTHLHWYQQRPGQAPRLLIYSVSNRFSEVPARFSGSGSGTDFTLTISSVESEDFAVYYCSQTSHIPYTFGGGTKLEIK
